Measurements from “University of Dundee, Small-Polar-MMV Screening Library” (2021), ChEMBL document CHEMBL3988442.

Protein sequences, listed by entry. Tags and fused reporters are not part of them.
UniProt E9BF75, entry or part of it: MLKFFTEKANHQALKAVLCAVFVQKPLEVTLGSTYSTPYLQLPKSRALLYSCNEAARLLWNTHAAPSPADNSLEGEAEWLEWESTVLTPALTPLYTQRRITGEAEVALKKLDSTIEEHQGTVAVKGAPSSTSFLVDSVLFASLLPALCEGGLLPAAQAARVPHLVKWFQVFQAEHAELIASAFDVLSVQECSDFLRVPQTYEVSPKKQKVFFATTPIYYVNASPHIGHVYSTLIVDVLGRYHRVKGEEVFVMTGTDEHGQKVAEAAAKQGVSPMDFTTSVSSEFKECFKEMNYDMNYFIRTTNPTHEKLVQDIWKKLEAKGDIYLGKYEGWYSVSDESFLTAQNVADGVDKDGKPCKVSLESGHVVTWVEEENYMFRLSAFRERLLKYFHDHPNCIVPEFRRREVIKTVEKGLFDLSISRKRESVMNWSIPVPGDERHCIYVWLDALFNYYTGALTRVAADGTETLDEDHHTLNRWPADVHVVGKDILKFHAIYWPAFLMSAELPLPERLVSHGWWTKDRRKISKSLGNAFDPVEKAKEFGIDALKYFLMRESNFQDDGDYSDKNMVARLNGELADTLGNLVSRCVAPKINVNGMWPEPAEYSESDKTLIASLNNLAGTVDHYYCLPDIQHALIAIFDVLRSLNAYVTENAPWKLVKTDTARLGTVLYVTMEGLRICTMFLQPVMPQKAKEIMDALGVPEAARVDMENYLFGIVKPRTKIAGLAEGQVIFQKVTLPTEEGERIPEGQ

Results are percentages, as filed. How 0% and 100% were set is not recorded. Most values in the screen are low, and negative values occur. Compounds were drawn at random from those tested, without regard to their results. A dash means the value is not listed here; it may have been measured.

Mtb heat-shock: 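Assay on Mycobacterium tuberculosis, filed only as a heat shock assay from Cornell; the read-out is not stated. The concentration is filed as 10 mM, unlikely as a test dose, so the dose is not known. The record gives no direction; compounds that gave an IC50 in retests scored well above the rest, so higher reads as stronger inhibition. Of about 69,000 compounds tested this way, about 930 (1.4%) reached 50% or more in at least one test.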
LdMetRS: 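Methionyl-tRNA synthetase (putative), Leishmania donovani (UniProt E9BF75). Primary screen of methionyl-tRNA synthetase; the read-out is not stated. The test concentration is not given. Values are per cent inhibition. Of about 68,000 compounds tested this way, about 24 (0.035%) reached 50% or more in at least one test.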
Mtb growth Cornell: 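Whole-cell assay for inhibitors of Mycobacterium tuberculosis growth, labelled Cornell in the record; the read-out is not stated. The concentration is filed as 10 mM, unlikely as a test dose, so the dose is not known. Higher means stronger inhibition (inferred from two other growth screens of the library). Of about 53,000 compounds tested this way, about 900 (1.7%) reached 50% or more in at least one test.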

| SMILES | Mtb heat-shock | LdMetRS | Mtb growth Cornell |
|---|---|---|---|
| `O=C1C=CC=N/C1=C(/O)NCCNS(=O)(=O)N1CCCCCC1` | -18.89% | 5.205% | - |
| `Cc1n[nH]c(C)c1NC(=O)CN(CC(O)c1ccc(F)cc1)C1CC1` (stereo not shown) | 15.7% | 15.86% | 2.056% |
| `NC(=O)C1CCN(C(=O)c2cccc(OCc3cscn3)c2)CC1` | 17.49% | 12.27% | 13.22% |
| `COCCN1CCCCC12CC(=O)N(c1ccccc1OC)C2.O=C(O)C(F)(F)F` (stereo not shown) | 18.5% | - | -8.328% |
| `Cc1ccccc1CSc1nc(N)cc(N2CC[C@@H](O)C2)n1` | 13.71% | 26.39% | 31.64% |
| `CCCc1cc(NC2CCN(Cc3ccccn3)CC2)n2nccc2n1` | 14.74% | 6.452% | 2.818% |
| `COc1cccc(CC(=O)NCc2cnc(C)nc2C2CCCN2C)c1` (stereo not shown) | -11.6% | 16.95% | -10.74% |
| `Cc1noc(CNC(=O)[C@@H](C)NC(=O)OC(C)(C)C)n1` | -0.203% | 13.94% | 24.4% |
| `Nc1cc(N2CCCC(COc3ccc(F)cc3)C2)ncn1` (stereo not shown) | -15.24% | 12.32% | 22.25% |
| `O=C(O)C(F)(F)F.[H][C@@]12COC[C@]1(COCc1csc(C)n1)CN(Cc1ccoc1)C2` | -21.98% | - | 9.226% |
| `Cc1nc(C2CCCN(C(=O)c3ccc(Cn4cccn4)o3)C2)no1` (stereo not shown) | 11.82% | 8.502% | -45.92% |
| `COc1cccc(-n2nnc(C(=O)N3CCCC(C)C3)c2C)c1` (stereo not shown) | 7.694% | 17.71% | - |
| `Cc1ccc(N2CC3(CCN(Cc4nccn4C)C3)CC2=O)s1.O=C(O)C(F)(F)F` (stereo not shown) | -1.3% | - | -27.35% |
| `Cc1cccc(N2CCN(CCNC(=O)C(C)n3cncn3)CC2)c1` (stereo not shown) | 3.903% | 7.874% | 16.51% |
| `COc1cccc(CNC(Cc2cccs2)c2nc(C)c(C)s2)c1OC.Cl` (stereo not shown) | -9.078% | - | -8.223% |
| `Cc1nc(C2(NCc3ccc(C#N)cc3F)CCCC2)no1` | 9.731% | 14.54% | 26.79% |
| `c1cc(COC[C@H]2CCC[C@]23CNCCO3)ccn1` | - | 17.57% | - |
| `Cc1nc(N2CCN(C(=O)c3ccsc3)CC2)c2cnn(C)c2n1` | 11.17% | 11.11% | 6.548% |
| `O=C(CC1CC1)N1CCC2(CC1)CN(c1ncc(F)cn1)CCO2` | -4.461% | 18.68% | 15.1% |
| `Cc1ncc(CN(C)C2CCCN(c3cccnn3)C2)s1` (stereo not shown) | 15.56% | 19.15% | 17.52% |
| `CCOCC1CN(C(=O)c2ccsc2)Cc2nn(C)cc21` (stereo not shown) | 1.225% | 10.37% | 4.459% |
| `O=C(O)C(F)(F)F.[H][C@@]12CCN(Cc3scnc3C)C[C@]1(C(=O)NC)CCO2` | 0.679% | - | -32.65% |
| `CSc1nccc(N2CCC3(CCCN(Cc4ccc(F)cc4)C3)C2)n1` (stereo not shown) | 5.693% | 18.21% | - |
| `Cc1ccc(C(=O)N2CCC3(CCN3Cc3ccc(F)cc3)C2)cn1` (stereo not shown) | - | 19.94% | - |
| `CC(C)(C)NC(=O)CN1CCCC(c2ccc(C(=O)O)cc2)C1` (stereo not shown) | -3.516% | 7.357% | -5.725% |
| `CNC(=O)CS(=O)(=O)C1CCN(S(=O)(=O)c2cccc(Cl)c2C)CC1` | -2.016% | 4.545% | 16.84% |
| `FC(F)(F)c1cc(N2CCc3ncnc(NC4CC4)c3CC2)ncn1` | -5.305% | 5.439% | 7.97% |
| `CCn1nc2c(cc1=O)CN(CCOc1ccc(C#N)cc1)CC2` | 4.221% | 16.09% | 40.55% |
| `O=C(C[C@@H]1COC[C@H]2CN(Cc3ccncc3)C[C@@H]12)N1CCOCC1` | - | 15.35% | - |
| `O=C(NCC(F)F)c1cc(-c2ccccc2)nc2ncnn12` | -13.62% | 0.7444% | -1.047% |
| `COCCn1c(C(=O)NC(C(N)=O)C(C)C)cc2ccccc21` (stereo not shown) | -34.39% | 16.71% | - |
| `[H][C@@]12CCC(=O)N(CC3CCNCC3)[C@]1([H])CCN(Cc1cnn(C)c1)C2` | -10.82% | - | -8.887% |
| `CN(CCO)CC1COCCN1C(=O)C1CCCCC1.O=CO` (stereo not shown) | 4.47% | - | 3.954% |
| `Cn1c(=O)[nH]c(=O)c2c1nc1n2CC(c2ccc(Cl)cc2)O1` (stereo not shown) | -4.175% | -0.5263% | -40.67% |
| `Cc1cc(NS(=O)(=O)c2cccs2)ccc1-n1cccc1C(=O)O` | -2.676% | 21.22% | 31.6% |
| `CO[C@@H]1CCC[C@@H](NC(=O)c2cccc(F)c2)[C@H]1O` | 19.57% | 11.63% | 46.32% |
| `COc1cc(CNC(=O)Nc2nnc(C(C)C)s2)ccc1O` | 8.314% | 6.774% | 11.81% |
| `CN1CCN(C(=O)c2cc3occc3n2Cc2ccccc2F)CC1` | -17.08% | 17.69% | 15.04% |
| `Cc1ccccc1N1CCN(C(=O)Cc2ccc3c(c2)OCO3)CC1=O` | -10.48% | 11.8% | - |
| `Cn1c(C(F)(F)F)nn(CCNC(=O)Nc2ccccc2Cl)c1=O` | -14.68% | 1.748% | -6.695% |
| `O=C(O)C(F)(F)F.[H][C@@]12CCN(c3ncc(F)cn3)[C@]1([H])CC[C@H](C(=O)NCc1ccco1)O2` | -7.822% | - | 8.134% |
| `CCC(CC)C(=O)N1CCCc2c(cnn2C)C1` | -1.291% | 15.84% | 20.83% |
| `CCOC(=O)N1CCCC2(CCN(Cc3ccccc3C#N)C2)C1` (stereo not shown) | 3.798% | 20.5% | 17.61% |
| `Cc1nc(-c2ccc(Cl)s2)sc1C(=O)NCCCC(N)=O` | 10.14% | 13.02% | - |
| `CN1CCCn2c(nc(CNS(=O)(=O)C3CC3)cc2=O)C1` | - | 12.78% | - |
| `CCN1CCOC(CNCc2ccccc2OCc2ccccn2)C1` (stereo not shown) | -29.86% | 8.661% | 14.76% |
| `Cn1nc2c(cc1=O)CN(Cc1coc(-c3ccc(F)cc3)n1)CC2` | -13.34% | 4.601% | - |
| `Cc1nc[nH]c1CN1CCN(C(=O)c2cccs2)[C@H]2CS(=O)(=O)C[C@H]21` | - | 11.85% | - |
| `O=C(Nc1ccccc1C(=O)NCCN1CCOCC1)c1ccco1` | -12.23% | 8.815% | -0.5643% |

Repeated from the top, 4 entries:

Result for O=C1C=CC=N/C1=C(/O)NCCNS(=O)(=O)N1CCCCCC1 was Mtb heat-shock: -18.89%; LdMetRS: 5.205%.
Result for Cc1n[nH]c(C)c1NC(=O)CN(CC(O)c1ccc(F)cc1)C1CC1 (stereo not shown) was Mtb heat-shock: 15.7%; LdMetRS: 15.86%; Mtb growth Cornell: 2.056%.
Result for NC(=O)C1CCN(C(=O)c2cccc(OCc3cscn3)c2)CC1 was Mtb heat-shock: 17.49%; LdMetRS: 12.27%; Mtb growth Cornell: 13.22%.
Result for COCCN1CCCCC12CC(=O)N(c1ccccc1OC)C2.O=C(O)C(F)(F)F (stereo not shown) was Mtb heat-shock: 18.5%; Mtb growth Cornell: -8.328%.